Source: PubChem BioAssay AID540256 (National Center for Advancing Translational Sciences (NCATS), 2011)
The whole screen tested about 300,000 compounds, of which about 3,700 (1.2%) were called active. The inconclusive results got no clear call from the source; some entries with a clear call stand among them for comparison. The call rests on the fitted dose curve; tested in HEK293 cells. Where the call is inconclusive, the potency comes from a doubtful curve fit.
Potency means the concentration at half of the fitted maximal effect.

Assay: qHTS for Inhibitors of binding or entry into cells for Lassa Virus; further: nearly all actives have a fitted effect of over 50% in size
Conditions: Lassa virus pseudotype entry inhibition, cell reporter; series mostly up to 37.9 µM
In the case of `Cc1c(C(=O)NCCC2=CCCCC2)sc2ncnc(N3CCCCC3C)c12` (stereo not drawn), the Potency is reported as inconclusive: 3.55 µM [inhibitor, partial curve]. For `CCC(=O)N(CCC(c1ccccc1)c1ccco1)Cc1cccs1` (stereo not drawn), the Potency was inconclusive: 35.5 µM [inhibitor, single point]. With `c1ccc2c(N3CCOCC3)nc(N3CCOCC3)nc2c1` the Potency was “inactive”. With `CCN(CC)C(=O)C1CC(c2ccc(OC)cc2)=NO1` (stereo not drawn) the Potency was “inactive”. With `CC(C)(C)C(=O)CSc1ncnc2c1cnn2-c1ccccc1` the Potency was inconclusive: 0.562 µM [activator, partial curve, poor fit]. With `O=C(OCC(=O)N(Cc1ccccc1)Cc1ccccc1)c1cccc(O)c1` the Potency was inconclusive: 10 µM [inhibitor, partial curve, poor fit]. With `CCOc1ccc(-c2nonc2NC(=O)c2oc3cc(C)ccc3c2C)cc1` the Potency was inconclusive: 2.82 µM [inhibitor, partial curve, poor fit]. With `Cc1ccc(N2CC(C(=O)NC3CC3)CC2=O)cc1` (stereo not drawn) the Potency was “inactive”. In the case of `CC1CCN(CC(O)COCCC23CC4CC(CC(C4)C2)C3)CC1` (stereo not drawn), the Potency is reported as inconclusive: 14.6 µM [inhibitor, partial curve, poor fit]. With `COC1(OC)N=C(N)C2(C#N)C(c3ccc(C)cc3)C12C#N` (stereo not drawn) the Potency was inconclusive: 1.58 µM [inhibitor, full curve, poor fit]. For `O=C(NCC(c1cccnc1)N1CCN(c2ccccc2F)CC1)c1cccc(Cl)c1` (stereo not drawn), the Potency was inconclusive: 25.1 µM [inhibitor, single point]. For `CCc1ccc(NC(=O)C(C)OC(=O)c2c(C)nn(Cc3ccccc3)c2Cl)cc1` (stereo not drawn), the Potency was inconclusive: 2.82 µM [inhibitor, full curve, poor fit]. In the case of `O=C1CN(c2nc(-c3cccnc3)nc3sc4c(c23)CCCC4)CCN1`, the Potency is reported as inconclusive: 14.1 µM [inhibitor, single point]. For `CN=C1CC(SC)=C1c1ccc(C)cc1`, the Potency was inconclusive: 35.5 µM [activator, single point]. With `CCn1cc(/C=C/C(=O)Nc2ccn(Cc3c(F)c(F)cc(F)c3F)n2)cn1` the Potency was “inactive”. For `O=C(N/N=C/c1ccc(OC(=O)c2ccccc2)c([N+](=O)[O-])c1)c1ccc(O)cc1`, the Potency was inconclusive: 35.5 µM [activator, single point]. For `O=C(CCCOc1ccc(Cl)cc1Cl)Nc1ccccc1C(=O)O`, the Potency was inconclusive: 5.62 µM [inhibitor, full curve, poor fit]. With `CCOC(=O)c1c(SCCN2CCCC2)n(-c2ccccc2)c(=S)n(-c2ccccc2)c1=O` the Potency was inconclusive: 35.5 µM [inhibitor, single point].
